Results reported in the supplement of paper PMC10849652.
The other results are listed elsewhere or left out.

Sequences of proteins named here, by UniProt entry; tags and fusion partners are left off. A change or cut given only in a name is not applied to a line headed by its entry.
UniProt Q86YS7: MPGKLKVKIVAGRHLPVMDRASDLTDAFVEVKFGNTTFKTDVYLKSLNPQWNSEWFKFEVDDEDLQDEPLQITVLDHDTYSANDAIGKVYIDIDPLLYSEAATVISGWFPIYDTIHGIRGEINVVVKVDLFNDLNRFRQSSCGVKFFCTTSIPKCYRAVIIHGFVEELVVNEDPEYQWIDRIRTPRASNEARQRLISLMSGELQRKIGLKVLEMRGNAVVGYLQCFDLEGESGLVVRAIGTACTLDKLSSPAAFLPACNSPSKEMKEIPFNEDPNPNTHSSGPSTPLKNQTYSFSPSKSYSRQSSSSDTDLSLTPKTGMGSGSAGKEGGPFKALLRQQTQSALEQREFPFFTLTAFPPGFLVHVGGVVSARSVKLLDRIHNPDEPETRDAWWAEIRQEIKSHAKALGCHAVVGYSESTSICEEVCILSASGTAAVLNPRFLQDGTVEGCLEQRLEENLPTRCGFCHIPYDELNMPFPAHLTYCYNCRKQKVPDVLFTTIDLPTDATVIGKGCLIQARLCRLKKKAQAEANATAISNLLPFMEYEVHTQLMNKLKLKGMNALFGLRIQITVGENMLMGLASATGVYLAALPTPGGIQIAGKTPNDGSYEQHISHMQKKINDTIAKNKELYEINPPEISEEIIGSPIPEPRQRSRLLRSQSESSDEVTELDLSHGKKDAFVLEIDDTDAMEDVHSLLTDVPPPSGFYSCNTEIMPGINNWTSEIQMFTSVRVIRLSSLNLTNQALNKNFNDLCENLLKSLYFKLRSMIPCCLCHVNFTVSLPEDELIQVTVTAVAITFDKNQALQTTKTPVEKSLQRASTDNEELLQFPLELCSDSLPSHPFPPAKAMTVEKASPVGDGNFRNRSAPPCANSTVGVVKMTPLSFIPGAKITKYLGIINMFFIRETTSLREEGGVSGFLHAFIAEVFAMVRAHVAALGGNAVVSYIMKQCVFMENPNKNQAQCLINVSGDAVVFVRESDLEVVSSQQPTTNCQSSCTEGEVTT
UniProt Q9HAS0: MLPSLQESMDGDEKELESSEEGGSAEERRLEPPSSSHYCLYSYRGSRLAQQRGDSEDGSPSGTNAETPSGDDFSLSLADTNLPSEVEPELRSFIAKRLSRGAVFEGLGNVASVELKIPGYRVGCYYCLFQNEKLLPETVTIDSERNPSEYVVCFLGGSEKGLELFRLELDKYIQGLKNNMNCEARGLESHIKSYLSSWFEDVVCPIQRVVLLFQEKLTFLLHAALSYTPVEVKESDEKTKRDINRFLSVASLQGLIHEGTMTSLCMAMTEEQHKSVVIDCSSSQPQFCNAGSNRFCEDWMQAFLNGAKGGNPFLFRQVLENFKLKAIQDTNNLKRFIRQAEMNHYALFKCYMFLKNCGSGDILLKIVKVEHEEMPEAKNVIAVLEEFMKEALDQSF
UniProt P47756, whole entry, looked up: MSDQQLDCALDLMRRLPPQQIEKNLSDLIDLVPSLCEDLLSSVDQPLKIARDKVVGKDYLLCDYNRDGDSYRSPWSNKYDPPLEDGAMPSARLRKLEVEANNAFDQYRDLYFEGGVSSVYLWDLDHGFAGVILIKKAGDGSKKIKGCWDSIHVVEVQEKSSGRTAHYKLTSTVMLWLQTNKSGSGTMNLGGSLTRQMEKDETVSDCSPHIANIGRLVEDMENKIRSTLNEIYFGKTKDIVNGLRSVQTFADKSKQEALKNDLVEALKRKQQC
UniProt O95873: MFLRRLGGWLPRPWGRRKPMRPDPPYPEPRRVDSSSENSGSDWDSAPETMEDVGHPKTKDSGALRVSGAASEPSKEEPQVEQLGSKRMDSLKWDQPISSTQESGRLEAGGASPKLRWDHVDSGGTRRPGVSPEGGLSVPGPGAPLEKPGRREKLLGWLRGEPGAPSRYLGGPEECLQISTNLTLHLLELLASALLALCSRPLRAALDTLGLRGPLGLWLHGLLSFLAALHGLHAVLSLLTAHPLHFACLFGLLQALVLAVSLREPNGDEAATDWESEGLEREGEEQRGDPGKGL
UniProt P41223: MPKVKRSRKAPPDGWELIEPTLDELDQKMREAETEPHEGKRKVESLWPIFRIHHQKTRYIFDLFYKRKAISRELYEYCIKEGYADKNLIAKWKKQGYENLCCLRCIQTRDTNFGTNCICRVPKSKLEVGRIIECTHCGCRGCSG
UniProt Q8WUQ7: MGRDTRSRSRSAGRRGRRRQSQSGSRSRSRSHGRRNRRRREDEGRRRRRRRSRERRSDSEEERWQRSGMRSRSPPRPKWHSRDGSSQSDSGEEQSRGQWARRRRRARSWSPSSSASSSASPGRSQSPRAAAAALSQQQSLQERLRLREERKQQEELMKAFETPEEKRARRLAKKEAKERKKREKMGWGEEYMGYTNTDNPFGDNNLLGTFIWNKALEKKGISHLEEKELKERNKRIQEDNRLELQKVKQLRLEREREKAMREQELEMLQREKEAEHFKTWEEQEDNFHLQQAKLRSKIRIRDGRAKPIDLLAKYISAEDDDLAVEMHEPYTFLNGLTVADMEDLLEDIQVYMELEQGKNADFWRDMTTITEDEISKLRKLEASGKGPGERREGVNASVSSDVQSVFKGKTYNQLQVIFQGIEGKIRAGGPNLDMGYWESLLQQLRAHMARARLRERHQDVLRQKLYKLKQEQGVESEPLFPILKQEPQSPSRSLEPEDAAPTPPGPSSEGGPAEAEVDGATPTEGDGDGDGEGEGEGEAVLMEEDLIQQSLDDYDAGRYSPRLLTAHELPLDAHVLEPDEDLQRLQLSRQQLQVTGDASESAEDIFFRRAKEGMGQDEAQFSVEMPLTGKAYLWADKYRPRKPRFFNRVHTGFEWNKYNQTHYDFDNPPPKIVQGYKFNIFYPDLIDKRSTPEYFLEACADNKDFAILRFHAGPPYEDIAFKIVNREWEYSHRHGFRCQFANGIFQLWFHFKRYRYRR
UniProt Q9Y6W3: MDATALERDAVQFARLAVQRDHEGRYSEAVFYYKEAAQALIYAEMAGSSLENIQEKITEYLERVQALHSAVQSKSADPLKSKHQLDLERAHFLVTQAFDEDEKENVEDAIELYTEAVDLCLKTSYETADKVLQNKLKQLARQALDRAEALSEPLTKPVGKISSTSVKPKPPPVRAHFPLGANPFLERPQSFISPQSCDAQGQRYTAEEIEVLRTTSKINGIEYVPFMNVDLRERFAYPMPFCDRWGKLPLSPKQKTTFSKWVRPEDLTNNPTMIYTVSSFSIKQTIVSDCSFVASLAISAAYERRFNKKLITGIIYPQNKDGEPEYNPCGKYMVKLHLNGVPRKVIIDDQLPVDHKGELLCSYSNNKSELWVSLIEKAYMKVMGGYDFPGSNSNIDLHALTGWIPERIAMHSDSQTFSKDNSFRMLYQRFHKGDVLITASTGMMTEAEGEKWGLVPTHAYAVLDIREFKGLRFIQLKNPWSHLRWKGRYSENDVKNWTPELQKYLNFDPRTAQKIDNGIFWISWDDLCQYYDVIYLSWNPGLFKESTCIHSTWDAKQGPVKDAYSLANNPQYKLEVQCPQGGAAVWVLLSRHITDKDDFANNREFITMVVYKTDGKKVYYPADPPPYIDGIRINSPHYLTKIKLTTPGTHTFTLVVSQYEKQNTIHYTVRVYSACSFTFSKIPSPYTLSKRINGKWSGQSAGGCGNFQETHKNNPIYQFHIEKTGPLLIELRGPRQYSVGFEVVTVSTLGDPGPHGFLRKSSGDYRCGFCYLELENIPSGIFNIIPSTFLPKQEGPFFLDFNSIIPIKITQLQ
UniProt Q8WVQ1: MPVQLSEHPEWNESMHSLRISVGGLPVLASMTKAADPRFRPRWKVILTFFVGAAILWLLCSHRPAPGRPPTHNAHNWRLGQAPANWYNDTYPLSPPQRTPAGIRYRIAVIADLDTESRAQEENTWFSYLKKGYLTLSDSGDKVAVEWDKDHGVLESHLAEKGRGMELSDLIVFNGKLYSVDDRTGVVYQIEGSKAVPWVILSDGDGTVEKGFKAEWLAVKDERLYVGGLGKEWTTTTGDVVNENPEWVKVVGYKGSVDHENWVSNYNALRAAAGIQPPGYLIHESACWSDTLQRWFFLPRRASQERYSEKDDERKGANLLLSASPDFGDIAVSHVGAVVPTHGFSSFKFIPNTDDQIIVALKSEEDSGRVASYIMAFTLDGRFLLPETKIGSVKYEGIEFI

Legend:
Assay in all cases: log2 fold change, soluble protein after heating vs DMSO (PISA); higher = thermal stabilisation; K562 lysate, 10 uM; active = over 0.2 and 3.5 SD of the protein, either way, in both replicates (recomputed)
alvocidib = compound: CN1CC[C@H](c2c(O)cc(O)c3c(=O)cc(-c4ccccc4Cl)oc23)[C@H](O)C1 [alvocidib]
Summary of the method: (§1)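 Quantification was by TMTpro 16plex LC-MS/MS with equalised channel sums, applied to the supernatant after 21,000xg for 90 min. Samples were crude K562 extract at 1 mg/mL protein in PBS pH 7.4 with 1 mM MgCl2, treated with 10 μM compound for 30 min, heated for 3 min across 48°C-58°C, pooled and brought to 0.5% NP-40 at 4°C. Values are log-two fold changes in thermal stability relative to solvent controls, from duplicates.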

Tubastatin A = compound: CN1CCc2c(c3ccccc3n2Cc2ccc(C(=O)NO)cc2)C1 [Tubastatin A]
Summary of the method: as §1

[1] = compound: CNC(=O)C1=CC=CC=C1NC2=NC(=NC=C2Cl)NC3=C(C=C(C=C3)N4CCOCC4)OC
Summary of the method: as §1

defactinib = compound: CNC(=O)c1ccc(Nc2ncc(C(F)(F)F)c(NCc3nccnc3N(C)S(C)(=O)=O)n2)cc1 [defactinib]
Summary of the method: as §1

[2] = compound: CNc1nc(-c2ccc3c(N)n[nH]c3c2)cc(N2C[C@@H](C(=O)NC3CCCCC3)CC[C@H]2C)n1
Summary of the method: as §1

encorafenib = compound: COC(=O)N[C@@H](C)CNc1nccc(-c2cn(C(C)C)nc2-c2cc(Cl)cc(NS(C)(=O)=O)c2F)n1 [encorafenib]
Summary of the method: as §1

[3] = compound: COC(=O)[C@H](CCSC)NC(=O)C1=C(C=C(C=C1)NC[C@H](CS)N)C2=CC=CC=C2
Summary of the method: as §1

alisertib = compound: COc1cc(Nc2ncc3c(n2)-c2ccc(Cl)cc2C(c2c(F)cccc2OC)=NC3)ccc1C(=O)O [alisertib]
Summary of the method: as §1

[4] = compound: COc1cc2nc(-c3cc(F)ccc3O)nc(N[C@@H]3CNC[C@H]3C(C)(C)O)c2cc1OC
Summary of the method: as §1

gefitinib = compound: COc1cc2ncnc(Nc3ccc(F)c(Cl)c3)c2cc1OCCCN1CCOCC1 [gefitinib]
Summary of the method: as §1

lapatinib = compound: CS(=O)(=O)CCNCc1ccc(-c2ccc3ncnc(Nc4ccc(OCc5cccc(F)c5)c(Cl)c4)c3c2)o1 [lapatinib]
Summary of the method: as §1

pictilisib = compound: CS(=O)(=O)N1CCN(Cc2cc3nc(-c4cccc5[nH]ncc45)nc(N4CCOCC4)c3s2)CC1 [pictilisib]
Summary of the method: as §1

crizotinib = compound: C[C@@H](Oc1cc(-c2cnn(C3CCNCC3)c2)cnc1N)c1c(Cl)ccc(F)c1Cl [crizotinib]
Summary of the method: as §1

[5] = compound: C[C@H](C1=CC=C(C=C1)C(=O)NC2=C3C=CNC3=NC=C2)N
Summary of the method: as §1

duvelisib = compound: C[C@H](Nc1ncnc2nc[nH]c12)c1cc2cccc(Cl)c2c(=O)n1-c1ccccc1 [duvelisib]
Summary of the method: as §1

gandotinib = compound: Cc1cc(Nc2cc(CN3CCOCC3)c3nc(C)c(Cc4ccc(Cl)cc4F)n3n2)n[nH]1 [gandotinib]
Summary of the method: as §1

tozasertib = compound: Cc1cc(Nc2cc(N3CCN(C)CC3)nc(Sc3ccc(NC(=O)C4CC4)cc3)n2)n[nH]1 [tozasertib]
Summary of the method: as §1

doramapimod = compound: Cc1ccc(-n2nc(C(C)(C)C)cc2NC(=O)Nc2ccc(OCCN3CCOCC3)c3ccccc23)cc1 [doramapimod]
Summary of the method: as §1

bafetinib = compound: Cc1ccc(NC(=O)c2ccc(CN3CC[C@H](N(C)C)C3)c(C(F)(F)F)c2)cc1Nc1nccc(-c2cncnc2)n1 [bafetinib]
Summary of the method: as §1

[6] = compound: Cc1cccc(CC(=O)N2CCc3c2ccc(-c2cn(C)c4ncnc(N)c24)c3F)n1
Summary of the method: as §1

Target: C2CD5 isoform 3 (UniProt Q86YS7)
- log2 fold change (alvocidib): inactive: -0.157
- log2 fold change (Tubastatin A): inactive: 0.006
- log2 fold change [1]: inactive: -0.003
- log2 fold change (defactinib): inactive: -0.002
- log2 fold change [2]: inactive: 0.01
- log2 fold change (encorafenib): inactive: 0.054
- log2 fold change [3]: inactive: -0.028
- log2 fold change (alisertib): inactive: -0.016
- log2 fold change [4]: inactive: 0.016
- log2 fold change (gefitinib): inactive: 0.054
- log2 fold change (lapatinib): inactive: -0.031
- log2 fold change (pictilisib): inactive: -0.029
- log2 fold change (crizotinib): inactive: -0.028
- log2 fold change [5]: active: -0.26
- log2 fold change (duvelisib): inactive: -0.009
- log2 fold change (gandotinib): inactive: 0.125
- log2 fold change (tozasertib): inactive: -0.038
- log2 fold change (doramapimod): inactive: 0.035
- log2 fold change (bafetinib): inactive: -0.056
- log2 fold change [6]: active: 0.28

Target: C17orf75 (UniProt Q9HAS0)
- log2 fold change (alvocidib): inactive: -0.042
- log2 fold change (Tubastatin A): inactive: -0.084
- log2 fold change [1]: inactive: 0.036
- log2 fold change (defactinib): inactive: -0.026
- log2 fold change [2]: inactive: -0.025
- log2 fold change (encorafenib): inactive: 0.045
- log2 fold change [3]: inactive: 0.054
- log2 fold change (alisertib): inactive: -0.006
- log2 fold change [4]: inactive: -0.001
- log2 fold change (gefitinib): inactive: 0.009
- log2 fold change (lapatinib): inactive: -0.023
- log2 fold change (pictilisib): inactive: -0.036
- log2 fold change (crizotinib): inactive: -0.035
- log2 fold change [5]: inactive: -0.099
- log2 fold change (duvelisib): inactive: 0.032
- log2 fold change (gandotinib): inactive: 0.023
- log2 fold change (tozasertib): inactive: 0.091
- log2 fold change (doramapimod): inactive: 0.011
- log2 fold change (bafetinib): inactive: 0.007
- log2 fold change [6]: inactive: 0.098

Target: CAPZB (UniProt P47756)
- log2 fold change (alvocidib): inactive: 0.046
- log2 fold change (Tubastatin A): inactive: 0.032
- log2 fold change [1]: inactive: -0.004
- log2 fold change (defactinib): inactive: -0.004
- log2 fold change [2]: inactive: 0.014
- log2 fold change (encorafenib): inactive: -0.015
- log2 fold change [3]: inactive: 0.011
- log2 fold change (alisertib): inactive: -0.01
- log2 fold change [4]: inactive: 0.001
- log2 fold change (gefitinib): inactive: -0.044
- log2 fold change (lapatinib): inactive: -0.014
- log2 fold change (pictilisib): inactive: 0.001
- log2 fold change (crizotinib): inactive: 0.035
- log2 fold change [5]: inactive: 0.148
- log2 fold change (duvelisib): inactive: 0.001
- log2 fold change (gandotinib): inactive: -0.017
- log2 fold change (tozasertib): inactive: -0.019
- log2 fold change (doramapimod): inactive: -0.012
- log2 fold change (bafetinib): inactive: 0.024
- log2 fold change [6]: inactive: -0.061

Target: C6orf47 (UniProt O95873)
- log2 fold change (alvocidib): inactive: -0.118
- log2 fold change (Tubastatin A): inactive: 0.064
- log2 fold change [1]: inactive: 0.032
- log2 fold change (defactinib): inactive: 0.02
- log2 fold change [2]: inactive: 0.042
- log2 fold change (encorafenib): inactive: 0.019
- log2 fold change [3]: inactive: -0.006
- log2 fold change (alisertib): inactive: -0.028
- log2 fold change [4]: inactive: -0.06
- log2 fold change (gefitinib): inactive: 0.014
- log2 fold change (lapatinib): inactive: 0.009
- log2 fold change (pictilisib): inactive: 0.011
- log2 fold change (crizotinib): inactive: -0.026
- log2 fold change [5]: inactive: -0.214
- log2 fold change (duvelisib): inactive: 0.008
- log2 fold change (gandotinib): inactive: 0.086
- log2 fold change (tozasertib): inactive: -0.052
- log2 fold change (doramapimod): inactive: 0.028
- log2 fold change (bafetinib): inactive: 0.017
- log2 fold change [6]: inactive: 0.142

Target: BUD31 (UniProt P41223)
- log2 fold change (alvocidib): inactive: 0.103
- log2 fold change (Tubastatin A): inactive: -0.001
- log2 fold change [1]: inactive: 0.007
- log2 fold change (defactinib): inactive: 0.01
- log2 fold change [2]: inactive: -0.004
- log2 fold change (encorafenib): inactive: -0.018
- log2 fold change [3]: inactive: -0.036
- log2 fold change (alisertib): inactive: 0.021
- log2 fold change [4]: inactive: -0.005
- log2 fold change (gefitinib): inactive: -0.069
- log2 fold change (lapatinib): inactive: 0.026
- log2 fold change (pictilisib): inactive: -0.003
- log2 fold change (crizotinib): inactive: -0.001
- log2 fold change [5]: inactive: 0.155
- log2 fold change (duvelisib): inactive: -0.003
- log2 fold change (gandotinib): inactive: -0.03
- log2 fold change (tozasertib): inactive: 0.034
- log2 fold change (doramapimod): inactive: 0.01
- log2 fold change (bafetinib): inactive: -0.037
- log2 fold change [6]: inactive: -0.068

Target: CACTIN isoform 2 (UniProt Q8WUQ7)
- log2 fold change (alvocidib): inactive: 0.003
- log2 fold change (Tubastatin A): inactive: -0.088
- log2 fold change [1]: inactive: 0.1
- log2 fold change (defactinib): inactive: -0.005
- log2 fold change [2]: inactive: -0.024
- log2 fold change (encorafenib): inactive: -0.017
- log2 fold change [3]: inactive: 0.012
- log2 fold change (alisertib): inactive: -0.078
- log2 fold change [4]: inactive: 0.001
- log2 fold change (gefitinib): inactive: 0.054
- log2 fold change (lapatinib): inactive: -0.036
- log2 fold change (pictilisib): inactive: -0.028
- log2 fold change (crizotinib): inactive: -0.033
- log2 fold change [5]: inactive: -0.01
- log2 fold change (duvelisib): inactive: -0.064
- log2 fold change (gandotinib): inactive: -0.083
- log2 fold change (tozasertib): inactive: 0.051
- log2 fold change (doramapimod): inactive: 0.018
- log2 fold change (bafetinib): inactive: -0.172
- log2 fold change [6]: inactive: -0.026

Target: CAPN7 (UniProt Q9Y6W3)
- log2 fold change (alvocidib): inactive: -0.015
- log2 fold change (Tubastatin A): inactive: -0.021
- log2 fold change [1]: inactive: 0.002
- log2 fold change (defactinib): inactive: 0.033
- log2 fold change [2]: inactive: -0.032
- log2 fold change (encorafenib): inactive: 0.02
- log2 fold change [3]: inactive: -0.025
- log2 fold change (alisertib): inactive: -0.015
- log2 fold change [4]: inactive: 0.007
- log2 fold change (gefitinib): inactive: -0.035
- log2 fold change (lapatinib): inactive: -0.003
- log2 fold change (pictilisib): inactive: -0.026
- log2 fold change (crizotinib): inactive: -0.055
- log2 fold change [5]: inactive: 0.01
- log2 fold change (duvelisib): inactive: -0.018
- log2 fold change (gandotinib): inactive: -0.016
- log2 fold change (tozasertib): inactive: 0.016
- log2 fold change (doramapimod): inactive: 0.014
- log2 fold change (bafetinib): inactive: -0.021
- log2 fold change [6]: inactive: 0.012

Target: CANT1 (UniProt Q8WVQ1)
- log2 fold change (alvocidib): inactive: -0.003
- log2 fold change (Tubastatin A): inactive: 0.042
- log2 fold change [1]: inactive: 0
- log2 fold change (defactinib): inactive: 0.016
- log2 fold change [2]: inactive: -0.005
- log2 fold change (encorafenib): inactive: 0.024
- log2 fold change [3]: inactive: -0.081
- log2 fold change (alisertib): inactive: 0.022
- log2 fold change [4]: inactive: -0.005
- log2 fold change (gefitinib): inactive: 0.014
- log2 fold change (lapatinib): inactive: -0.006
- log2 fold change (pictilisib): inactive: -0.082
- log2 fold change (crizotinib): inactive: 0.033
- log2 fold change [5]: inactive: -0.041
- log2 fold change (duvelisib): inactive: -0.041
- log2 fold change (gandotinib): inactive: -0.029
- log2 fold change (tozasertib): inactive: -0.01
- log2 fold change (doramapimod): inactive: 0.031
- log2 fold change (bafetinib): inactive: -0.012
- log2 fold change [6]: inactive: 0.004
